Reference: the supplement of paper PMC12067093, “Discovery and optimisation of a covalent ligand for TRIM25 and its application to targeted protein ubiquitination” (Chemical Science, 2025)
This is one part of the list.

Amino acid sequences for entries named in this document (tags omitted). A change or cut given only in a name is not applied to a line headed by its entry.
UniProt O95848: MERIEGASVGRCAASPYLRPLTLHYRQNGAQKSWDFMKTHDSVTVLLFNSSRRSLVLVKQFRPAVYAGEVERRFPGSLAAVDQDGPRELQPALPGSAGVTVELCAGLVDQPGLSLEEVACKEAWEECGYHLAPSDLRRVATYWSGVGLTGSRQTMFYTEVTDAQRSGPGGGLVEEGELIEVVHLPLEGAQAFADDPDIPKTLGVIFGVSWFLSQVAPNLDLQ
UniProt Q12769: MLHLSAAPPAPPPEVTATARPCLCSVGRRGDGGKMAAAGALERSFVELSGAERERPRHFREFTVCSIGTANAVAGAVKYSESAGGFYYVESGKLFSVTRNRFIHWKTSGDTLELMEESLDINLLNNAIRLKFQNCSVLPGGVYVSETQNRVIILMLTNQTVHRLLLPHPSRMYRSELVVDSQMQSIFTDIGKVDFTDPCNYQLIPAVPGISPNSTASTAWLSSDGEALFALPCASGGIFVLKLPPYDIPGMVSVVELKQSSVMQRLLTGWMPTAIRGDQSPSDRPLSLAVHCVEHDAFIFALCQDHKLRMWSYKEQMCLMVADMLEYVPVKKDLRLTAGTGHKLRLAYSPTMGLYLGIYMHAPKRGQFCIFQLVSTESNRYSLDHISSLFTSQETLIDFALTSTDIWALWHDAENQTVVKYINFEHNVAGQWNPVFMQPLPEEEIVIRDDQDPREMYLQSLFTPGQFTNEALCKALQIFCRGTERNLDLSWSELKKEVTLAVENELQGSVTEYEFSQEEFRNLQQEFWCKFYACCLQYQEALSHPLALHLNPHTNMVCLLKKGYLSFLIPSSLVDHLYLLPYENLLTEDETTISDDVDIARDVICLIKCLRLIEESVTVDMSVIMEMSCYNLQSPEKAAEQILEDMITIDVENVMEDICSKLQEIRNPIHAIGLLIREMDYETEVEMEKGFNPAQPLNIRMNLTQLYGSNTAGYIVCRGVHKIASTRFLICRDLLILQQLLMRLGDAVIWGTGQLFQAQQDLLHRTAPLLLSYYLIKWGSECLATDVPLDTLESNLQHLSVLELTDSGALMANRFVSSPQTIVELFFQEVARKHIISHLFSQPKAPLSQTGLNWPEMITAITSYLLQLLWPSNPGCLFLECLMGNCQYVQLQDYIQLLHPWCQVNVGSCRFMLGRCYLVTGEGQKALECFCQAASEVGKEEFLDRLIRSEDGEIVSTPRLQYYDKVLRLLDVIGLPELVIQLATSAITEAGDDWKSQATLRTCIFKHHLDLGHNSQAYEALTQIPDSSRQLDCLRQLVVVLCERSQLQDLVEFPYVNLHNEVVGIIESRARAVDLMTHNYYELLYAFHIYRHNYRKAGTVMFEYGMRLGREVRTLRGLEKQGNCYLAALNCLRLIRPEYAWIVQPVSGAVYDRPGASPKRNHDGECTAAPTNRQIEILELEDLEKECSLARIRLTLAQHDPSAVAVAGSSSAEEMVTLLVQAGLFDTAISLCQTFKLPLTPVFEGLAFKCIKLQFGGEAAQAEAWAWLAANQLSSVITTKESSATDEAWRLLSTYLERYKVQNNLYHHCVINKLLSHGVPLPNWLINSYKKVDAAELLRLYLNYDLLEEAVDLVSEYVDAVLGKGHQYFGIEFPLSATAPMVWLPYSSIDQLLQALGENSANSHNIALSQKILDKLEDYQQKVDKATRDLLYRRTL
UniProt Q9UKX7: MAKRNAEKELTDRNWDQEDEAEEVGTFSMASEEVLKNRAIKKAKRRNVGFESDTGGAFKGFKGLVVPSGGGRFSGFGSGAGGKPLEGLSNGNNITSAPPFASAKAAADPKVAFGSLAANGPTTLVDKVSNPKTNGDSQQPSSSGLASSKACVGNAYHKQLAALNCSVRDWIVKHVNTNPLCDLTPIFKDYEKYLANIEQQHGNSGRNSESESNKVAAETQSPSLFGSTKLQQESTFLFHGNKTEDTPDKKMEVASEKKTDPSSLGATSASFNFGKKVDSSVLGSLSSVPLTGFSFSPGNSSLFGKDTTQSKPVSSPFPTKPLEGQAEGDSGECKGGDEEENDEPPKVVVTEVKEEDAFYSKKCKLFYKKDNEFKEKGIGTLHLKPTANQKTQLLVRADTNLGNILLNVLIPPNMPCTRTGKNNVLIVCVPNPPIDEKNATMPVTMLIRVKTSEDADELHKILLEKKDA
UniProt Q5BJF6: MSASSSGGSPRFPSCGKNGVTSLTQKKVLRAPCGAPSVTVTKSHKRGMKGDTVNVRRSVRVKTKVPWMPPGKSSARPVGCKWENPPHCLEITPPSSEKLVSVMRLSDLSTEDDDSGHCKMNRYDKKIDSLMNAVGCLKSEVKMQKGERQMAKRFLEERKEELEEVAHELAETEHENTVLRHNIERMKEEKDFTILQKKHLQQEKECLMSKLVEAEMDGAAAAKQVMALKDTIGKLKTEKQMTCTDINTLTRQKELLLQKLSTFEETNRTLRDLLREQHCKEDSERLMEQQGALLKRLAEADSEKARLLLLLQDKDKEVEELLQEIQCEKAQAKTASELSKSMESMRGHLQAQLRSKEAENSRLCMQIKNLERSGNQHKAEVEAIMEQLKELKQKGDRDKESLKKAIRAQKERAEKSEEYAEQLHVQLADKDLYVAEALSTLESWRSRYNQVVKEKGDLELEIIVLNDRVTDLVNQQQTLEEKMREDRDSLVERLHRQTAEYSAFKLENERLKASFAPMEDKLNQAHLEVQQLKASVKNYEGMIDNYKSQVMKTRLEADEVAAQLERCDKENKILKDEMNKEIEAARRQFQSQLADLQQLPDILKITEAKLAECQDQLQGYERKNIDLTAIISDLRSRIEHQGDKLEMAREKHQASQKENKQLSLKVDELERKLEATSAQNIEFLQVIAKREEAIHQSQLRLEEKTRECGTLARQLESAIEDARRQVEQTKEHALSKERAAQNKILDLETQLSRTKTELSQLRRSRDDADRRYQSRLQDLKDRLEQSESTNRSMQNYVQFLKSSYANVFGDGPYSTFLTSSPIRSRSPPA
UniProt Q8WUM0: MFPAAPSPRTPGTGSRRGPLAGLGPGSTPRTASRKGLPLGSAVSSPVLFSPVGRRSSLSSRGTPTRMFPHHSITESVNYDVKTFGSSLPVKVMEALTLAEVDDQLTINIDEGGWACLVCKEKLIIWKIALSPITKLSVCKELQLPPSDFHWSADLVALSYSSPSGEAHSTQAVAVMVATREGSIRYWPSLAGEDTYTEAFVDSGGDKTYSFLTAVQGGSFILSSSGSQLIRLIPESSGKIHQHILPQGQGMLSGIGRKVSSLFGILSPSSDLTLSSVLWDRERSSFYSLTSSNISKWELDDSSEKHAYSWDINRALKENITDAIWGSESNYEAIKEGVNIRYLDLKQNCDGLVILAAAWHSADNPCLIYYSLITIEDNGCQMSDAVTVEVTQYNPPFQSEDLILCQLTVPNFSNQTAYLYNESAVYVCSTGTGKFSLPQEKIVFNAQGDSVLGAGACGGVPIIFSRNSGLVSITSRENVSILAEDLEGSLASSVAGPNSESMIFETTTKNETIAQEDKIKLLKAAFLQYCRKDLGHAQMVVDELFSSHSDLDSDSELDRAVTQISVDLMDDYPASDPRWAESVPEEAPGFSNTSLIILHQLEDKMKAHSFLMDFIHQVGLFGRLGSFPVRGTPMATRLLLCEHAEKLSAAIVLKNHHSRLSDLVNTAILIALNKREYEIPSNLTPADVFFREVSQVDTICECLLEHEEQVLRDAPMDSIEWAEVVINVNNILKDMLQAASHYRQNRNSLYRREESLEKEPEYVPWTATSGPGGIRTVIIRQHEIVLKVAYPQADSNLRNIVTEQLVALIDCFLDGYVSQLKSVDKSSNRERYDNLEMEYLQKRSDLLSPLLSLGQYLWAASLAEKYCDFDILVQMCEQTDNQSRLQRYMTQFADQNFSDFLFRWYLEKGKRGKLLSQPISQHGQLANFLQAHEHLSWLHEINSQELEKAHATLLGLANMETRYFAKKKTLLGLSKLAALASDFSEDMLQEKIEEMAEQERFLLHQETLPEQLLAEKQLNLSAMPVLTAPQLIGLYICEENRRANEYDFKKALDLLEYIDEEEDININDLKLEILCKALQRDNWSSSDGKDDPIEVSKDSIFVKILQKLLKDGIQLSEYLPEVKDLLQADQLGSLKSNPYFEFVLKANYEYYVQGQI
UniProt Q9UBU9: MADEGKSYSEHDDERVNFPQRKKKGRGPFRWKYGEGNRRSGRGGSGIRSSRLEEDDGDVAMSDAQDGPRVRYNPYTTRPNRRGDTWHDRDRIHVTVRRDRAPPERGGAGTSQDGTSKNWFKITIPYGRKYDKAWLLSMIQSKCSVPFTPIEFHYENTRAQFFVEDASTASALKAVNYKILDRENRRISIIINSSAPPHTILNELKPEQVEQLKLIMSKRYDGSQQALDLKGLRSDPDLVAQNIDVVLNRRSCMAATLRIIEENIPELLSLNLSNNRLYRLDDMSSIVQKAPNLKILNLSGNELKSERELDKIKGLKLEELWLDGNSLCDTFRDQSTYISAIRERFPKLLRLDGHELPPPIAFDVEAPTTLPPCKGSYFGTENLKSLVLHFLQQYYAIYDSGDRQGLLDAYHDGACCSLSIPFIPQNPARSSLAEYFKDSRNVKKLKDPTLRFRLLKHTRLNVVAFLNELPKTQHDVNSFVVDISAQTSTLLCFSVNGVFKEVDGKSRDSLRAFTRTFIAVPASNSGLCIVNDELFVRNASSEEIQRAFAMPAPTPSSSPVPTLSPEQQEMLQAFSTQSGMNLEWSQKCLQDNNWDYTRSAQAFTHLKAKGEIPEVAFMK
UniProt Q99567: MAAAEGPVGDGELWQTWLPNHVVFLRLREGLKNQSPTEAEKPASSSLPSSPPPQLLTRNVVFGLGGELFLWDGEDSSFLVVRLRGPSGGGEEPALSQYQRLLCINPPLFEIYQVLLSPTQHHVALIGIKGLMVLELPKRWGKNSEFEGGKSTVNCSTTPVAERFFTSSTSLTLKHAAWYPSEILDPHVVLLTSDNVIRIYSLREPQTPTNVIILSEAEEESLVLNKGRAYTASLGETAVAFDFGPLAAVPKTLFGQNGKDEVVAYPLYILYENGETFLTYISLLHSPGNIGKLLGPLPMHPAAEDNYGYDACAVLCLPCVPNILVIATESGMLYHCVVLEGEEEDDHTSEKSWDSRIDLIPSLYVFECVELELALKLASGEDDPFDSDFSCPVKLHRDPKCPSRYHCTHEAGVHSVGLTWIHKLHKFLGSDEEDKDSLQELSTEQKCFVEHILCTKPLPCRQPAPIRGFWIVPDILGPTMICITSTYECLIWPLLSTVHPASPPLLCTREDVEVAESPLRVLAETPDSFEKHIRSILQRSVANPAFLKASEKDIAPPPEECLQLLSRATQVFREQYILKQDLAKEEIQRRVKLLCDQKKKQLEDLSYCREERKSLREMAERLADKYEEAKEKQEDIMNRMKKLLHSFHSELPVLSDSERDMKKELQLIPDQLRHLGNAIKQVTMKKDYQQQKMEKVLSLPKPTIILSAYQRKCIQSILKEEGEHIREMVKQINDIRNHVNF
UniProt P57740: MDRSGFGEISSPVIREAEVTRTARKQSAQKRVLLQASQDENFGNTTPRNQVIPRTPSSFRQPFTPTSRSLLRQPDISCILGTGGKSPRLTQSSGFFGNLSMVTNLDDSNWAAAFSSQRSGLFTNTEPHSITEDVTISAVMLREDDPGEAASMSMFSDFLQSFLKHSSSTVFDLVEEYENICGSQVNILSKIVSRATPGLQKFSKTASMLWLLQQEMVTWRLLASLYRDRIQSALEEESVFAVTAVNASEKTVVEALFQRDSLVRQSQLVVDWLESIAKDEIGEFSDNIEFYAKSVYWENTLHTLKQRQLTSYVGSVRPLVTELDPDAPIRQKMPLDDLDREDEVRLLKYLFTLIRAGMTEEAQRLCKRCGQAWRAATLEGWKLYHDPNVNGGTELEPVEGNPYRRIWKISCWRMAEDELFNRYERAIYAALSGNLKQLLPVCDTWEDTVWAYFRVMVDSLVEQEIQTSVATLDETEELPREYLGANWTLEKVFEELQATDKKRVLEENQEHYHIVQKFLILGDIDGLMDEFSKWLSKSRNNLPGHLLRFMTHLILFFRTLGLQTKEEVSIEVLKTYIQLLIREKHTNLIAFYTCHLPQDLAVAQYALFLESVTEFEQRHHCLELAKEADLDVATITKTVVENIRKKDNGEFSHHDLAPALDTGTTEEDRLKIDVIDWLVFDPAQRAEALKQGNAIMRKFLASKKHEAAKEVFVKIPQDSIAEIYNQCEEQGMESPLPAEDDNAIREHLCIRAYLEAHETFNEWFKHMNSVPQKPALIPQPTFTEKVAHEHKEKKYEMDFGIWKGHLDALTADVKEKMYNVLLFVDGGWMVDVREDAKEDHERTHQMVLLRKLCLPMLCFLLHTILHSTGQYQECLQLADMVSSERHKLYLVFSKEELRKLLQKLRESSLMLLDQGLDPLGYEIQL
UniProt Q9Y530: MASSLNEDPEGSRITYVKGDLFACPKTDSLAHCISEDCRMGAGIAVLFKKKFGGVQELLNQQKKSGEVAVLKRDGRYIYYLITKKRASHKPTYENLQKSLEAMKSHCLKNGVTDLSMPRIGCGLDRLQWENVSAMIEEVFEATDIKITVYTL

Compound: CC1Cc2ccccc2N1C(=O)C1CCCN(C1)C(=O)CCl (mixture of isomers) [TRIM25 ligand 11 (diastereomer mixture)]
Test: probe-labelled cysteine peptide fold change vs DMSO (competition) (log2 fold change); higher = less target engagement (more negative = stronger competition)
Conditions: THP-1, incubation time: 4 h
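Further: competitive chemoproteomic profiling in live THP-1 cells with an iodoacetamide desthiobiotin (IA-DTB) probe, comparing probe-labelled peptide intensities in compound-treated cells against DMSO-treated controls.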

Target | probe-labelled cysteine peptide fold change (10 µM) | probe-labelled cysteine peptide fold change (50 µM)
OGFOD2_Q6N063_209_FLQPLMALLYPDCGGGR (UniProt Q6N063) | 0.163 | 0.402
NUDC_Q9Y266_188_WTQTLSELDLAVPFCVNFR (UniProt Q9Y266) | -0.0574 | 0.00376
OCIAD2_Q56VL3_130_HCLLTCEECK (UniProt Q56VL3) | 0.0401 | -0.0916
NUP37_Q8NFH4_172_IWNLEGVQTAHFVLHSPGMSVCWHPEETFK (UniProt Q8NFH4) | 0.0758 | -0.0133
NUDT14_O95848_12_CAASPYLRPLTLHYR (UniProt O95848) | -0.125 | 0.0208
NUBP2_Q9Y5Y2_202_VMGIVENMSGFTCPHCTECTSVFSR (UniProt Q9Y5Y2) | 0.32 | -0.17
NUP160_Q12769_369_RGQFCIFQLVSTESNR (UniProt Q12769) | 0.339 | 0.0881
NUP50_Q9UKX7_181_HVNTNPLCDLTPIFK (UniProt Q9UKX7) | 0.189 | -0.0447
ODF2_Q5BJF6_327_DKEVEELLQEIQCEK (UniProt Q5BJF6) | -0.038 | -0.112
NUP133_Q8WUM0_530_AAFLQYCR (UniProt Q8WUM0) | 0.0754 | 0.164
OBSL1_O75147_738_VVLTCELSR (UniProt O75147) | -0.237 | 0.104
NUP155_O75694_917_ISNQVDLSNVCAQYR (UniProt O75694) | -0.078 | -0.147
NXF1_Q9UBU9_588_CLQDNNWDYTR (UniProt Q9UBU9) | 0.125 | 0.13
NT5DC2_Q9H857_475_FSDLYMASLSCLLNYR (UniProt Q9H857) | 0.0123 | 0.0662
NUP88_Q99567_447+454_CFVEHILCTKPLPCR (UniProt Q99567) | 0.0844 | -0.0996
NXF1_Q9UBU9_252_SCMAATLR (UniProt Q9UBU9) | -0.00854 | 0.0649
NUP153_P49790_753_CVACETPKPGTCVK (UniProt P49790) | -0.08 | -0.212
NUSAP1_Q9BXS6_64_KGNENQDESQTSASSCDETEIQISNQEEAERQPLGHVTK (UniProt Q9BXS6) | -0.273 | -0.0073
NUP210_Q8TEM1_1592_GECTPTQR (UniProt Q8TEM1) | 0.0853 | 0.177
NUP107_P57740_442_QLLPVCDTWEDTVWAYFR (UniProt P57740) | 0.293 | 0.103
NUP98_P52948_1711_HIQQVDCSGNDLEQLHIK (UniProt P52948) | 0.207 | 0.108

Fetched one by one from the list above:
Target | probe-labelled cysteine peptide fold change (10 µM) | probe-labelled cysteine peptide fold change (50 µM)
NUP37_Q8NFH4_172_IWNLEGVQTAHFVLHSPGMSVCWHPEETFK (UniProt Q8NFH4) | 0.0758 | -0.0133
NUP50_Q9UKX7_181_HVNTNPLCDLTPIFK (UniProt Q9UKX7) | 0.189 | -0.0447

Next part:

Target | probe-labelled cysteine peptide fold change (10 µM) | probe-labelled cysteine peptide fold change (50 µM)
NUP43_Q8NFH3_222_VPLHCVDRHPNQQHVVATGGQDGMLSIWDVR (UniProt Q8NFH3) | 0.271 | 0.0847
OCRL_Q01968_679_DYFLTISGNYLPSCFGTSLEALCR (UniProt Q01968) | 0.224 | 0.149
ODF2_Q5BJF6_327_EVEELLQEIQCEK (UniProt Q5BJF6) | 0.19 | 0.125
NUFIP1_Q9UHK0_199_CPELDCSFTAHEK (UniProt Q9UHK0) | -0.0179 | 0.00519
NUP155_O75694_551_LHQEDQACATCLILACSTAACDREVSAWATR (UniProt O75694) | -0.126 | -0.0532
OARD1_Q9Y530_38_TDSLAHCISEDCR (UniProt Q9Y530) | 0.11 | 0.0731
OGG1_O15527_140_LLRQDPIECLFSFICSSNNNIAR (UniProt O15527) | -0.487 | -0.127
NUP98_P52948_1234_HSTVHVDELCPLIVPNLGVAVIHDYADWVK (UniProt P52948) | 0.00413 | -0.0378
NUP133_Q8WUM0_641_LLLCEHAEK (UniProt Q8WUM0) | -0.0511 | -0.0456
NUDCD1_Q96RS6_402+410+421_EKPPCNAQELEECDIFFEESSSLCR (UniProt Q96RS6) | -0.124 | 0.0365
NUP88_Q99567_155_STVNCSTTPVAER (UniProt Q99567) | 0.0346 | -0.0177
OARD1_Q9Y530_24_GDLFACPK (UniProt Q9Y530) | -0.0589 | 0.131
OFD1_O75665_503_AIVVEHEEFESCR (UniProt O75665) | 0.26 | -0.0094
NUDT7_P0C024_72_RAPGEVCFPGGK (UniProt P0C024) | 0.0276 | -0.0536
NUDT18_Q6ZVK8_100_EVKEEAGLHCEPETLLSVEER (UniProt Q6ZVK8) | -0.155 | -0.157
NUS1_Q96E22_235_QKRPTDLDVDTLASLLSSNGCPDPDLVLK (UniProt Q96E22) | -0.332 | -0.641
NUP160_Q12769_529_NLQQEFWCK (UniProt Q12769) | 0.248 | 0.177
OAS1_P00973_331_QLAQEAEAWLNYPCFK (UniProt P00973) | -0.16 | -0.193
NUP155_O75694_551_LHQEDQACATCLILACSTAACDR (UniProt O75694) | 0.24 | 0.141
NUP107_P57740_749_EHLCIR (UniProt P57740) | 0.128 | 0.0884
